Source: PubChem BioAssay AID1259254 (NCATS, 2017)
Assay: 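Finding genes that stop cells copying their DNA twice in one cycle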 (primary screen). Cell system: human HCT116 colorectal cancer cells. Knock-down reagent: single siRNA against human genes. Time to read-out: 3 days. Read-out: 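Imaged Hoechst DNA stain sorts each cell into a cycle phase by DNA amount; per plate, G2 fraction set to 0% for non-targeting and 100% for GMNN siRNA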. Reading the numbers: G2 robust z-score and G2 cells, % of GMNN control: higher = more G2 cells, more excess DNA replication; raw share of cells in G2: higher = larger share of cells with G2 DNA content. Call rule: 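An siRNA counts as active if its G2 robust z-score lies at least 5 MADs above the screen median; here such calls match roughly 38% of GMNN control or more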.
Shown is an unselected part of about 59,000 reagents. In the full data, about 1,550 (2.6%) are marked active. 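G2 share is only a proxy for re-replication; each gene was hit by three separate siRNAs, and active genes were retested.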 Raw values are not corrected between plates. The numbers tell different reagents against one gene apart. The record does not give: the amount of reagent.

target gene | reagent no. | G2 robust z-score | G2 cells, % of GMNN control | raw share of cells in G2 (%) | outcome
RAP2B | 1 | -0.578 | -1.1 | 4.6 | inactive
RAP2B | 2 | -0.119 | 2.13 | 5.49 | inactive
RAP2B | 3 | 0.297 | 5.06 | 5.83 | inactive
MYL7 | 1 | -0.203 | 1.54 | 4.78 | inactive
MYL7 | 2 | 2.39 | 19.8 | 11.4 | inactive
MYL7 | 3 | 4.09 | 31.8 | 18.8 | inactive
FOSL2 | 1 | 0.127 | 3.86 | 6.64 | inactive
FOSL2 | 2 | 1.85 | 16 | 11.3 | inactive
FOSL2 | 3 | 0.948 | 9.64 | 7.09 | inactive
FAM89A | 1 | 0.654 | 7.57 | 7.88 | inactive
FAM89A | 2 | -1.21 | -5.58 | 1.86 | inactive
FAM89A | 3 | -0.488 | -0.466 | 3.2 | inactive
DNAJC5B | 1 | -0.374 | 0.337 | 3.21 | inactive
DNAJC5B | 2 | 0.734 | 8.13 | 5.99 | inactive
DNAJC5B | 3 | -0.465 | -0.307 | 3.42 | inactive
NOP53 | 1 | 0.217 | 4.5 | 5.57 | inactive
NOP53 | 2 | 0.627 | 7.38 | 7.34 | inactive
NOP53 | 3 | 1.84 | 15.9 | 8.28 | inactive
PIAS2 | 1 | -0.736 | -2.21 | 3.53 | inactive
PIAS2 | 2 | 4.87 | 37.2 | 18.3 | inactive
PIAS2 | 3 | 1.87 | 16.1 | 10.5 | inactive
PAQR8 | 1 | 1.27 | 11.9 | 10.1 | inactive
PAQR8 | 2 | 4.36 | 33.6 | 16.3 | inactive
PAQR8 | 3 | 0.854 | 8.98 | 6.02 | inactive

Next part, starting with the last 6 of the part before.
target gene | reagent no. | G2 robust z-score | G2 cells, % of GMNN control | raw share of cells in G2 (%) | outcome
PIAS2 | 1 | -0.736 | -2.21 | 3.53 | inactive
PIAS2 | 2 | 4.87 | 37.2 | 18.3 | inactive
PIAS2 | 3 | 1.87 | 16.1 | 10.5 | inactive
PAQR8 | 1 | 1.27 | 11.9 | 10.1 | inactive
PAQR8 | 2 | 4.36 | 33.6 | 16.3 | inactive
PAQR8 | 3 | 0.854 | 8.98 | 6.02 | inactive
LINC00944 | 1 | -0.0149 | 2.86 | 4.75 | inactive
LINC00944 | 2 | 0.0741 | 3.49 | 4.92 | inactive
LINC00944 | 3 | 1.07 | 10.5 | 9.12 | inactive
LCN8 | 1 | -0.982 | -3.94 | 3.26 | inactive
LCN8 | 2 | -1.06 | -4.52 | 3.8 | inactive
LCN8 | 3 | 0.0144 | 3.07 | 5.99 | inactive
TRAPPC14 | 1 | -0.865 | -3.12 | 3.32 | inactive
TRAPPC14 | 2 | 0.0581 | 3.38 | 5.54 | inactive
TRAPPC14 | 3 | 0.872 | 9.1 | 6.04 | inactive
COL25A1 | 1 | -0.812 | -2.74 | 3.19 | inactive
COL25A1 | 2 | -0.17 | 1.77 | 3.98 | inactive
COL25A1 | 3 | 1.15 | 11.1 | 5.77 | inactive
RBBP8NL | 1 | -0.574 | -1.07 | 2.69 | inactive
RBBP8NL | 2 | -1.22 | -5.65 | 1.93 | inactive
RBBP8NL | 3 | 0.263 | 4.82 | 4.4 | inactive
FBH1 | 1 | 1.67 | 14.7 | 10 | inactive
FBH1 | 2 | -0.597 | -1.23 | 5.1 | inactive
FBH1 | 3 | -1.27 | -6 | 2.39 | inactive
TMPRSS6 | 1 | -0.0424 | 2.67 | 6.73 | inactive
TMPRSS6 | 2 | 4.29 | 33.1 | 15.4 | inactive
TMPRSS6 | 3 | -0.294 | 0.9 | 4.6 | inactive
CYP26C1 | 1 | -0.475 | -0.374 | 4.81 | inactive
CYP26C1 | 2 | 2.01 | 17.1 | 13.3 | inactive
CYP26C1 | 3 | -1.12 | -4.94 | 2.48 | inactive
